Source: ChEMBL document CHEMBL3988442, “University of Dundee, Small-Polar-MMV Screening Library” (2021).

By UniProt entry, the sequences of proteins in these tests, tags left out. Residues count along the entry.
UniProt Q4DA54, 1-478: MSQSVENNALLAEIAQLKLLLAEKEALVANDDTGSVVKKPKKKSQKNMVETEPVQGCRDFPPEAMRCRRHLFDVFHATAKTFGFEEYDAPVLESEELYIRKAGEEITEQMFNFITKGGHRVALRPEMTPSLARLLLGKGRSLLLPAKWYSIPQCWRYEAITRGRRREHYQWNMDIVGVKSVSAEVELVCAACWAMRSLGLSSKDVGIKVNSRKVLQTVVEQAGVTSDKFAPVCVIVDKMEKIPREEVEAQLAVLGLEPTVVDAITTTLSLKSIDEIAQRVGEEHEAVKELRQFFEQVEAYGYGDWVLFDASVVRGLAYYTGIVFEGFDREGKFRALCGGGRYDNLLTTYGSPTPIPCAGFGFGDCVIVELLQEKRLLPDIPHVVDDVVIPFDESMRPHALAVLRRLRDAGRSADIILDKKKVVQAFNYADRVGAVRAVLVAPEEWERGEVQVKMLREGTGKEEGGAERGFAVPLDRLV
UniProt P9WNZ1, whole entry: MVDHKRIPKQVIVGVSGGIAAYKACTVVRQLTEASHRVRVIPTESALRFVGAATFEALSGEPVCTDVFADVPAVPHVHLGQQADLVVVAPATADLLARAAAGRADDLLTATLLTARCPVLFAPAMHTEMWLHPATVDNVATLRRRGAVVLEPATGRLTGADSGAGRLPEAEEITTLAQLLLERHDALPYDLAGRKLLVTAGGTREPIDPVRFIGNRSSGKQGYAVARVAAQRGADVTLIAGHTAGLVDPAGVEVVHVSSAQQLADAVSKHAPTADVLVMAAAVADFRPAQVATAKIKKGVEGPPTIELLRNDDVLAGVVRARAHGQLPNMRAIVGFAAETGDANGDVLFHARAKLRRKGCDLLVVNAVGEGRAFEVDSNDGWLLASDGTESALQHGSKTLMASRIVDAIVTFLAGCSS

A: 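Histidine-tRNA ligase, Trypanosoma cruzi CL Brener (UniProt Q4DA54). Enzyme assay of histidyl-tRNA synthetase; the read-out is not stated. Compounds at 30 µM. Higher reads as stronger inhibition (inferred: compounds with an IC50 in retests scored well above the rest). About 69,000 compounds were tested under these conditions; 0.045% (about 31) showed 50% or more at least once.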
B: 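Coenzyme A biosynthesis protein CoaBC, Mycobacterium tuberculosis (UniProt P9WNZ1). Enzyme assay of CoaBC with a phosphate dye (Biomol Green) read at 650 nm. Concentration: 30 µM. Higher reads as stronger inhibition, judged from the few compounds that gave an IC50. Most strong results did not repeat in a second test. Size under these conditions: about 67,000 compounds, about 40 of them at 50% or above in at least one test.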

The filed quantity is “Percent Effect” (%).
The record does not define 0% and 100%; most values in the screen are far below 50% and negative numbers occur (in some assays of this library far below -100).
This is an unselected part of the compounds tested.
Two or more numbers in one place are separate tests of the same structure; such repeats can differ widely.
A dash means the value is not listed here; it may have been measured.

structure	A	B
CN1C[C@H]2CCN(C(=O)NC3CCCC3)CC[C@H]2S1(=O)=O	2.732%	5.518%
O=C(NCCNc1ncccn1)C1CCCC1	2.326%	32.46% & 15.98%
CCCc1nc(N2CCN(Cc3ccccn3)CC2)c2cnn(C)c2n1	10.4%	-1.515%
c1cc2c(cc1Cn1cc(C3CCOC3)nn1)CCCO2 (centres unmarked)	2.051%	3.215%
COCCN(Cc1ccoc1)S(=O)(=O)c1ccc(F)c(C)c1	10.1%	5.216%
CCc1nc(CCNc2ncccn2)sc1C	9.877%	1.595%
CC(C)CCN1CCc2cc(C(=O)N(C)C)c(NCC3CC3)nc2CC1	6.542%	-0.2469%
Cc1noc(C2CN(S(=O)(=O)C3CC3)Cc3ccnn3C2)n1 (centres unmarked)	-5.747%	18.13%
Cc1cnc(N2C[C@@H]3CCN(CC4CC4)C(=O)[C@H]3C2)nc1	5.747%	2.664%
COC(=O)N1CCCC(C(=O)NCCc2c[nH]c3cc(C)ccc23)C1 (centres unmarked)	4.95%	1.337%
Nc1cc(N2CCCC(COc3ccc(F)cc3)C2)ncn1 (centres unmarked)	8.287%	0.9709%
Cc1ccc(S(=O)(=O)N2CCN(CCCn3ccnc3)CC2)cc1	-4.651%	4.721%
COc1cnc(C2(O)CCN(C(=O)c3ccncc3)CC2)c(OC)n1	3.784%	-6.667%
CN1CCN(C(=O)[C@H]2CC[C@@H]3[C@@H](CCN3Cc3nccs3)O2)CC1	-1.442%	16.24%
Cn1c(Nc2cn[nH]c2)c(C#N)c(=O)n(C)c1=O	0%	-6.608%
O=c1n(CCNc2cccc3ccccc23)nc2ccccn12	12.12%	10.1%
O=C(NCC(F)(F)F)C1CCC(=O)N(C2CCCC2)C1 (centres unmarked)	2.174%	-8.669%
Cc1cc(-c2cnc(NCc3ccccn3)nc2C(C)C)on1	-1.064%	2.941%
CNC(=O)NC(=O)C(C)N1CCN(c2ccc(C#N)cc2F)CC1 (centres unmarked)	10.1%	1.145%
CCSCCOC(=O)CCCc1ccc2c(c1)CC(=O)N2	2.674%	5.217%
O=C1NCCN1C1CCN(Cc2nc(-c3ccc(F)cc3)no2)CC1	6.322%	0.9032%
COc1ncc(CN(CCN(C)C)Cc2ccc(C)s2)cn1	6.18%	-9.457%
Cc1c(Br)cccc1C(=O)NC(C)CN1CCCC1=O (centres unmarked)	4.132%	2.345%
CC(=O)N1N=C(COc2ccc3c(c2)OCO3)OC1c1ccc(C)cc1 (centres unmarked)	4.878%	1.772%
CSc1ccc(CN(C(=O)c2cc(=O)[nH]c(=O)[nH]2)C2CC2)cc1	3.911%	0.8065%
CC(=O)N1CCN([C@@H]2CN(C(=O)c3ccccc3C)C[C@H]2O)CC1	12.41%	9.557%
CSc1nc2cc(C)n(CC(N)=O)c2c(=O)n1CC(C)C	-20%	1.882%
CCS(=O)(=O)N1CCc2nc(N3CCCC3)nc(N(C)C)c2CC1	2.532%	-
Cc1cnc(CN2CCN(c3ccnc(-c4ccccc4)n3)CC2)cn1	6.931%	1.687%
COc1ccc(C2=CNC(C(F)(F)F)=CC2N)cc1 (centres unmarked)	1.156%	-0.8589%
c1ccc(CCCC2CN(Cc3ncc[nH]3)CCO2)cc1 (centres unmarked)	4.478%	7.901%
COc1ncc(C(=O)N2CCC3(CC2)C(=O)Nc2ccccc23)cn1	7.609%	0.4673%
CCC(=O)N1CCC2(CC1)CC(NC(=O)N(C)C)c1cc(C)ccc12 (centres unmarked)	3.81%	-3.576%
Cc1cccc2c1cnn2CCCNC(=O)c1cnn(C)c1	5.217%	2.54%
COc1cc(CNC(=O)Nc2nnc(C(C)C)s2)ccc1O	-20%	-0.7453%
O=C(NCCCn1cccn1)NCC(c1ccco1)N1CCCC1 (centres unmarked)	7.872%	3.916%
Cc1ccsc1C(=O)N1CCCC(c2[nH]ncc2S(C)(=O)=O)C1 (centres unmarked)	6.593%	1.456%
CCC(=O)c1ccc(OCC(=O)N2CCNCC2C(=O)NC2CC2)cc1 (centres unmarked)	2.703%	11.82%
OC1CCCN(Cc2ccc(F)c3cccnc23)C1 (centres unmarked)	6.548%	2.071%
COc1ccc(Nc2cc(C)nc(C)n2)cc1N1CCCC1=O	3.03%	2.917%
COc1cccc(CNC(=O)CCOc2ccccc2C)c1	0.9804%	0.9569%
COc1ccccc1OCCCc1cncc(C(N)=O)c1	4.348%	5.14%
CCc1cnc2c(c1NCc1cccc(OC)c1)c(=O)n(C)c(=O)n2C	2.174%	2.408%
CC(C)OCC(=O)N1CCCN(Cc2ccc(C#N)cc2)CC1	2.662%	-2.66%

For reference, 2 entries once more:

| structure | A | B |
|---|---|---|
| `CCS(=O)(=O)N1CCc2nc(N3CCCC3)nc(N(C)C)c2CC1` | 2.532% | - |
| `Cc1noc(C2CN(S(=O)(=O)C3CC3)Cc3ccnn3C2)n1` (centres unmarked) | -5.747% | 18.13% |